{
  "sequences": {"note": "By UniProt entry, the sequences of proteins in these tests, tags left out. Residues count along the entry.", "UniProt Q15303, residues 26-1308": "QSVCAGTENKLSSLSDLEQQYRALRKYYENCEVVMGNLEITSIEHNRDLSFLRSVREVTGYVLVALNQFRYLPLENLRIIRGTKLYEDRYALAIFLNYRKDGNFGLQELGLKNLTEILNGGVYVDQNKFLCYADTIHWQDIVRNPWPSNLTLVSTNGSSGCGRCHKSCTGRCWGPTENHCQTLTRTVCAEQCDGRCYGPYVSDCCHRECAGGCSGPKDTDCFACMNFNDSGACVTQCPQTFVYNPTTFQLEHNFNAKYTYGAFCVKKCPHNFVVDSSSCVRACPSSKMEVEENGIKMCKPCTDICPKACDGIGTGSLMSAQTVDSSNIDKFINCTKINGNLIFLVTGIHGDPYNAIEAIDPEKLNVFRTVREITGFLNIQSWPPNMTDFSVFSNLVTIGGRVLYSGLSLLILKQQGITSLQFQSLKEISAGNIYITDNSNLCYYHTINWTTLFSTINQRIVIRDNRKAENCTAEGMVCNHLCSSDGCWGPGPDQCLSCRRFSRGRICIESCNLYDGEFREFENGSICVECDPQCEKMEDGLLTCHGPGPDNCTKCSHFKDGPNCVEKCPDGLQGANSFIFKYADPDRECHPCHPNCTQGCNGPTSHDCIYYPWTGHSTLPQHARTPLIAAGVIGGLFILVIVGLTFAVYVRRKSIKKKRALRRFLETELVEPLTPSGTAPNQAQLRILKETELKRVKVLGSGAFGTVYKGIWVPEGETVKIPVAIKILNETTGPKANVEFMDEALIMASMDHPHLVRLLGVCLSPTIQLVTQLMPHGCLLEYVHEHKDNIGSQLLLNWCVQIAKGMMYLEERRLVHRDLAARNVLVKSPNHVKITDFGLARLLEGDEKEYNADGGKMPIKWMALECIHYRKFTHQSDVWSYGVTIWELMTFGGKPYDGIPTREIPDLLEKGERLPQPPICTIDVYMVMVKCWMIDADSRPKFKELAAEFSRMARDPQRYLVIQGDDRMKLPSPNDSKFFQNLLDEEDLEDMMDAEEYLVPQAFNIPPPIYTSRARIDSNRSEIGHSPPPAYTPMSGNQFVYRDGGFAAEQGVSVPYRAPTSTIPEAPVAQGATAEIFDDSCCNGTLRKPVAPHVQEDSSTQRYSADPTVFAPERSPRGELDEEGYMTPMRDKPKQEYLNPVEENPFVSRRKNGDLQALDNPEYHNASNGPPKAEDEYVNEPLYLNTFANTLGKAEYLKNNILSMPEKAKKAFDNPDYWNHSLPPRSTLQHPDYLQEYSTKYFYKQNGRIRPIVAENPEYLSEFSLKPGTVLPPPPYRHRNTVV", "UniProt P03372": "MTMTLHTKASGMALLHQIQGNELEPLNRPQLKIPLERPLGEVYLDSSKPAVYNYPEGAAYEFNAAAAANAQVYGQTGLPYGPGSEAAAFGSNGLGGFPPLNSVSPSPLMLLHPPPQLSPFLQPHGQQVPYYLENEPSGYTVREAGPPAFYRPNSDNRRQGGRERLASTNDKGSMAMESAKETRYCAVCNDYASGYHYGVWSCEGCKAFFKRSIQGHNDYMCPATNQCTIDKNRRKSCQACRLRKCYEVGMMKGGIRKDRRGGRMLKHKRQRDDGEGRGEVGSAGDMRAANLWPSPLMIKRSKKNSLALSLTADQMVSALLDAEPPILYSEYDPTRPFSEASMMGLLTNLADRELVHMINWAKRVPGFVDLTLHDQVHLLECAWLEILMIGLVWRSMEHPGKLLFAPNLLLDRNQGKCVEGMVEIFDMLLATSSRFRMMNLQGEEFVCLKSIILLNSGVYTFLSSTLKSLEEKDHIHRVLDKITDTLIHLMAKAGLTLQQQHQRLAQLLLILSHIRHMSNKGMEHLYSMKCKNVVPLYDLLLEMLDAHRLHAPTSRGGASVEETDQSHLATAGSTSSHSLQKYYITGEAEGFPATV"},
  "source": "paper PMC11242770",
  "target": "HER4/4ICD (human epidermal growth factor receptor related HER4 receptor and its cleaved intracellular domain 4ICD) (human (endogenous in MCF-7)) (UniProt Q15303)",
  "assay": "co-IP; 200 µg MCF-7 WT lysate, anti-HER4 catcher antibody on µMACS Protein A MicroBeads, 6 h at 4 °C, washed with ice cold lysis buffer; ESR detected by Western blot; cells untreated or treated 24 h with tamoxifen (1 µM), E2 (100 nM), NRG1 (30 ng/mL) or abemaciclib (100 nM)",
  "note": "These are yes or no findings as the source states them, for the method shown. In cells and extracts the contact can be indirect. Some entries that bind do so weakly or less than the wild type.",
  "data": [
    {"substance": "estrogen receptor (ESR) (from UniProt P03372 1-595)", "values": [
      {"measurement": "binding", "value": "binds"}
    ]}
  ]
}
